Source: patent publication US20130136691A1, “GASTRIN […] PEPTIDE COMPOUNDS” (priority 2008, published 2013)
At least one structure is not confirmed: it was looked up by name or label, or the drawing left a doubt.

Legend:
[1] = tested on: GRP receptor binding in T47D human breast cancer cells; assay: Effect of drug treatment on GRP receptor binding (177Lu-AMBA) and proliferation in T-47D cells; format: cell-based; conditions: Table 24; drug 0.1-1.0 μM (gefitinib 0.1-10, bortezomib 0.001-0.1); vs untreated control
Excerpt: T-47D breast cancer cells (human metastatic mammary gland ductal adenocarcinoma isolated from pleural effusion, ER+, PR+) were obtained from the American Type Culture Collection.

[2] = tested on: GRP receptor binding in PC-3 prostate cancer cells; assay: Single plate assay: dasatinib effect on 177Lu-AMBA binding (Bmax) and proliferation (CCK-F) in PC-3 cells; format: cell-based, human; conditions: PC3 cells; for % Change in Proliferation: N = 4; for ^177Lu-AMBA uptake (Bmax fmoles/million cells): control 266
Experimental: The cells were plated on Day 0 (7.5k/well 96-well PE Scintiplate). […] To determine the cell numbers and the proliferation, 100 uL of 10% CCK-F solution in DPBS (Molecular technologies) was added to the same plate, incubated for 30 min at 37° C. and the relative fluorescence (RFU) measured at 535 nm. Base on the cell numbers and the ^177Lu-binding, the Bmax (fmoles bound/million cells) was calculated, and the results compared with the control.

[3] = tested on: PC-3 prostate cancer cells; assay: Glucose uptake (2-NBDG) in PC-3 cells after dasatinib; format: cell-based, human; conditions: for % Change in 2-NBDG uptake: PC3 cells

Compound: Cc1nc(Nc2ncc(C(=O)Nc3c(C)cccc3Cl)s2)cc(N2CCN(CCO)CC2)n1 [dasatinib]
- change in 177Lu-AMBA uptake on a viable cell basis, T47D [1]: 500% ↑
- % change in ^177Lu-AMBA uptake ([2]; Dasatinib 1 nM): 12.3 (±5.8) %
- % Change in Proliferation ([2]; Dasatinib 1 nM): −4.3 (±1.0) %
- ^177Lu-AMBA uptake (Bmax fmoles/million cells) ([2]; Dasatinib 1 nM): 300 (±40) fmoles/million cells
- % change in ^177Lu-AMBA uptake ([2]; Dasatinib 10 nM): 45.4 (±8.1) %
- % Change in Proliferation ([2]; Dasatinib 10 nM): −11.2 (±5.9) %
- ^177Lu-AMBA uptake (Bmax fmoles/million cells) ([2]; Dasatinib 10 nM): 387 (±46) fmoles/million cells
- % change in ^177Lu-AMBA uptake ([2]; Dasatinib 100 nM): 76.7 (±5.0) %
- % Change in Proliferation ([2]; Dasatinib 100 nM): −33.3 (±11.4) %
- ^177Lu-AMBA uptake (Bmax fmoles/million cells) ([2]; Dasatinib 100 nM): 470 (±51) fmoles/million cells
- % Change in 2-NBDG uptake ([3]; Dasatinib 1 nM): −4.3 (±4.6) %
- % Change in 2-NBDG uptake ([3]; Dasatinib 10 nM): −62.9 (±7.1) %
- % Change in 2-NBDG uptake ([3]; Dasatinib 100 nM): −67.8 (±15.8) %
- decrease of glucose uptake (2-NBDG) ([3]; PC-3, 100 nM dasatinib): ≤ 67.8%
